The list shows only some results of the screen, not a fair sample: it is rich in T/C values a quarter to a half above the control, in often repeated tests (any T/C) and in doses without a T/C. Other doses and runs of a compound stand elsewhere. T/C gives the treated animals as a percentage of the vehicle group. Some doses have a count of surviving animals in place of a T/C: the source files T/C as zero there, which appears to mark a toxic dose or a test without result, not a measured value. Some survivor counts are full or nearly so, which does not show that the dose was tolerated: the source hardly ever lists a survival T/C far under the control, and the zero likely stands for such cases as well. Survivors were counted at the toxicity check, usually on the fifth day, unless a day is given; later deaths do not show. Schedule codes are those of the source, taken here to give the interval after Q, in days (D) or hours (H), and the number of doses after X. Some entries were tested several times; their values stand side by side, smallest first. Some structures stand for samples that the source files as different forms (salt, stereo form or complex); doses refer to the form tested. For survival time, the PubChem record calls one and a half times the control and up active, and a quarter to a half above the control has no call in these data; cut-offs in other NCI protocols can differ. Some T/C values are followed by the survivors on the day toxicity was checked, most often the fifth; without a count, all were alive then.
System: P388 leukemia ip, CD2F1 mice, survival T/C
Experiment: NCI In Vivo Anticancer Drug Screen. Data for tumor model P388 Leukemia (intraperitoneal) in CD2F1 (CDF1) mice
Settings: T/C endpoint: median survival time, higher T/C = longer survival
[1] = dose: 100.0 mg/kg/injection, schedule: Q01DX009 (ip), vehicle: saline
[2] = dose: 400.0 mg/kg/injection, schedule: Q01DX009 (ip), vehicle: other
[3] = dose: 240.0 mg/kg/injection, schedule: Q01DX005 (ip), vehicle: saline with Tween-80
[4] = dose: 200.0 mg/kg/injection, schedule: Q01DX009 (ip), vehicle: Klucel (hydroxypropylcellulose) (HPC)
[5] = dose: 200.0 mg/kg/injection, schedule: Q01DX009 (ip), vehicle: saline with Tween-80
[6] = dose: 25.0 mg/kg/injection, schedule: Q01DX009 (ip), vehicle: Klucel (hydroxypropylcellulose) (HPC)

Structure (SMILES): CC(=O)N1N=C(c2ccc(OCC(O)CN3CCN(CC(O)COc4ccc(C5=NN(C(C)=O)C(c6ccccc6)C5)cc4)CC3)cc2)CC1c1ccccc1 (centres undefined)
- survivor count (dose: 200.0 mg/kg/injection, schedule: Q01DX005 (ip), vehicle: saline with Tween-80): 5 of 6

Structure (SMILES): N#CCC[P+](CCC#N)(CCC#N)CCN1C(=O)c2ccccc2C1=O
- survivor count (dose: 400.0 mg/kg/injection, schedule: Q01DX009 (ip), vehicle: water): 2 of 6

Structure (SMILES): COc1cc2c(cc1O)NC(OC)C1CC(O)CN1C2=O (centres undefined)
- T/C (dose: 4.0 mg/kg/injection, schedule: Q01DX005 (ip), vehicle: saline with Tween-80): 128 and 133 % of control
- T/C (dose: 8.0 mg/kg/injection, schedule: Q01DX005 (ip), vehicle: saline with Tween-80): 128 and 130 % of control [5 of 6 alive]
- survivor count (dose: 16.0 mg/kg/injection, schedule: Q01DX005 (ip), vehicle: saline with Tween-80): 4 of 6
- survivor count (dose: 32.0 mg/kg/injection, schedule: Q01DX005 (ip), vehicle: saline with Tween-80): 0 of 6

Structure (SMILES): O=C(O)CC(SCP(=O)(O)O)C(=O)O (centres undefined)
- survivor count (dose: 120.0 mg/kg/injection, schedule: Q01DX005 (ip), vehicle: saline): 6 of 6

Structure (SMILES): O=[N+]([O-])c1ccc(O)c([N+](=O)[O-])c1
- survivor count (dose: 50.0 mg/kg/injection, schedule: Q04DX003 (ip), vehicle: saline with Tween-80): 6 of 6
- survivor count (dose: 64.0 mg/kg/injection, schedule: Q01DX005 (ip), vehicle: saline with Tween-80): 0 of 5
- survivor count (dose: 100.0 mg/kg/injection, schedule: Q04DX003 (ip), vehicle: saline with Tween-80): 0 of 6
- survivor count (dose: 128.0 mg/kg/injection, schedule: Q01DX005 (ip), vehicle: saline with Tween-80): 0 of 5

Structure (SMILES): C[n+]1ccn2cc(S(=O)(=O)[O-])ccc21
- survivor count (dose: 12.5 mg/kg/injection, schedule: Q01DX009 (ip), vehicle: saline): 0 of 6
- survivor count (dose: 25.0 mg/kg/injection, schedule: Q01DX009 (ip), vehicle: saline): 0 of 6
- survivor count (dose: 50.0 mg/kg/injection, schedule: Q01DX009 (ip), vehicle: saline): 0 of 6
- survivor count [1]: 0 of 6

Structure (SMILES): C=CCN(CC=C)c1cc(Cl)nnc1Cl
- survivor count [2]: 2 of 6

Structure (SMILES): Cc1nccn1Cc1ccc(Cl)cc1Cl
- survivor count [3]: 0 of 6

Structure (SMILES): Cc1ccc2nc(N(C)C)cc(N(C)C)c2c1
- survivor count (dose: 50.0 mg/kg/injection, schedule: Q01DX009 (ip), vehicle: Klucel (hydroxypropylcellulose) (HPC)): 6 of 6
- survivor count (dose: 100.0 mg/kg/injection, schedule: Q01DX009 (ip), vehicle: Klucel (hydroxypropylcellulose) (HPC)): 5 of 6
- survivor count [4]: 5 of 6

Structure (SMILES): O=[Se]([O][Sn]([O][Se](=O)c1ccccc1)([O][Se](=O)c1ccccc1)[c]1ccccc1)c1ccccc1 (centres undefined)
- survivor count [5]: 1 of 6, 3 of 6, 4 of 6

Structure (SMILES): CO[C@@H]1C2=CC=CC=C[C@H]2n2c(=O)n(-c3ccccc3)c(=O)n21
- survivor count (dose: 200.0 mg/kg/injection, schedule: Q01DX005 (ip), vehicle: Klucel (hydroxypropylcellulose) (HPC)): 5 of 5

Structure (SMILES): NC(=S)N/N=C/c1cn(-c2ccccc2[N+](=O)[O-])cn1
- survivor count (dose: 400.0 mg/kg/injection, schedule: Q04DX003 (ip), vehicle: Klucel (hydroxypropylcellulose) (HPC)): 1 of 6

Structure (SMILES): CCOC(=O)C1=C(C(=O)c2ccccc2)C(c2ccc([N+](=O)[O-])cc2)C(C(=O)c2ccccc2)=C(C(=O)OCC)N1
- survivor count (dose: 60.0 mg/kg/injection, schedule: Q01DX005 (ip), vehicle: Klucel (hydroxypropylcellulose) (HPC)): 3 of 6
- survivor count (dose: 120.0 mg/kg/injection, schedule: Q01DX005 (ip), vehicle: Klucel (hydroxypropylcellulose) (HPC)): 1 of 6
- survivor count (dose: 240.0 mg/kg/injection, schedule: Q01DX005 (ip), vehicle: Klucel (hydroxypropylcellulose) (HPC)): 0 of 6

Structure (SMILES): [Cl][Pt+2][Cl].[NH-]CCC[NH-]
- survivor count (dose: 25.0 mg/kg/injection, schedule: Q04DX002 (ip), vehicle: saline): 0 of 6

Structure (SMILES): CCCCCCCCCCCC(=O)OC1CCC2(C)C(=CCC3C2CCC2(C)C(C(C)/C=C/C(CC)C(C)C)CCC32)C1 (centres undefined)
- survivor count (dose: 400.0 mg/kg/injection, schedule: Q04DX003 (ip), vehicle: other): 5 of 6

Structure (SMILES): O=S(=O)(c1ccccc1)N(Cl)Cl
- T/C (dose: 25.0 mg/kg/injection, schedule: Q01DX009 (ip), vehicle: saline with Tween-80): 91, 99, 102, 123 % of control
- survivor count (dose: 50.0 mg/kg/injection, schedule: Q01DX009 (ip), vehicle: saline with Tween-80): 4 of 6
- survivor count (dose: 100.0 mg/kg/injection, schedule: Q01DX009 (ip), vehicle: saline with Tween-80): 3 of 6
- survivor count [5]: 0 of 6

Structure (SMILES): CC(=NC(C)(C)C)N1CCCCC1
- survivor count [1]: 5 of 6
- survivor count (dose: 200.0 mg/kg/injection, schedule: Q01DX009 (ip), vehicle: saline): 0 of 6

Structure (SMILES): CCC1(CC)c2c(ccc(OC)c2OC)C=C2c3cc4c(cc3CCN21)OCO4
- T/C (dose: 5.0 mg/kg/injection, schedule: Q01DX009 (ip), vehicle: distilled water + Tween-80): 132 % of control
- survivor count (dose: 5.0 mg/kg/injection, schedule: Q01DX009 (ip), vehicle: water): 3 of 3
- T/C (dose: 10.0 mg/kg/injection, schedule: Q01DX009 (ip), vehicle: distilled water + Tween-80): 134 % of control
- survivor count (dose: 10.0 mg/kg/injection, schedule: Q01DX009 (ip), vehicle: water): 0 of 3
- survivor count (dose: 20.0 mg/kg/injection, schedule: Q01DX009 (ip), vehicle: distilled water + Tween-80): 0 of 6
- survivor count (dose: 20.0 mg/kg/injection, schedule: Q01DX009 (ip), vehicle: water): 0 of 3

Structure (SMILES): O=[N+]([O-])c1ccc(/C=C/C=C/C=C/C=C/c2ccc(S(=O)(=O)F)cc2Cl)c(Cl)c1
- survivor count (dose: 120.0 mg/kg/injection, schedule: Q01DX005 (ip), vehicle: saline with Tween-80): 6 of 6
- survivor count [3]: 6 of 6

Structure (SMILES): Cc1cc(N)ccc1-n1cnc2c1c(=O)n(C)c(=O)n2C
- survivor count (dose: 200.0 mg/kg/injection, schedule: Q01DX005 (ip), vehicle: water): 2 of 5

Structure (SMILES): C1=CN2CC(c3ccccc3)N=C2S1 (centres undefined)
- survivor count (dose: 50.0 mg/kg/injection, schedule: Q01DX009 (ip), vehicle: other): 0 of 6
- survivor count (dose: 100.0 mg/kg/injection, schedule: Q01DX009 (ip), vehicle: other): 0 of 6
- survivor count (dose: 200.0 mg/kg/injection, schedule: Q01DX009 (ip), vehicle: other): 0 of 6
- survivor count [2]: 0 of 6
- survivor count (dose: 800.0 mg/kg/injection, schedule: Q01DX009 (ip), vehicle: other): 0 of 6
- survivor count (dose: 1600.0 mg/kg/injection, schedule: Q01DX009 (ip), vehicle: other): 0 of 6

Structure (SMILES): COc1ccc2nc(C(=O)NC3COC(=O)C(C(C)(C)O)N(C)C(=O)CN(C)C(=O)CNC(=O)C4CCCNN4C(=O)C(NC(=O)c4nc5ccc(OC)cc5cc4O)COC(=O)C(C(C)(C)O)N(C)C(=O)CN(C)C(=O)CNC(=O)C4C(OC(C)=O)CC=NN4C3=O)c(O)cc2c1 (centres undefined)
- T/C (dose: 5.0 micrograms/kg/injection, schedule: Q01DX005 (ip), vehicle: DMSO): 130 % of control
- T/C (dose: 10.0 micrograms/kg/injection, schedule: Q01DX005 (ip), vehicle: DMSO): 148 % of control
- survivor count (dose: 80.0 micrograms/kg/injection, schedule: Q01DX005 (ip), vehicle: DMSO): 2 of 6
- survivor count (dose: 160.0 micrograms/kg/injection, schedule: Q01DX005 (ip), vehicle: DMSO): 0 of 6

Structure (SMILES): C=CCN(CC=C)P(=O)(N1CC1)N1CC1C (centres undefined)
- T/C (dose: 0.27 mg/kg/injection, schedule: Q01DX009 (ip), vehicle: saline): 133 % of control
- T/C (dose: 0.4 mg/kg/injection, schedule: Q01DX009 (ip), vehicle: saline): 149 % of control

Structure (SMILES): CN(S(=O)(=O)CC(F)(F)F)S(=O)(=O)C(F)(F)F
- T/C (dose: 3.12 mg/kg/injection, schedule: Q01DX009 (ip), vehicle: saline): 137 % of control

Structure (SMILES): Nc1ncnc2c1nnn2C1OC(CO)C(O)C1O (centres undefined)
- T/C [6]: 137 % of control
- survivor count [4]: 5 of 6

Structure (SMILES): CN(C)c1c(-c2ccc(Cl)cc2)cc(-c2ccccc2)[nH]c1=O
- survivor count [6]: 6 of 6

— PubChem BioAssay AID330 (DTP/NCI, 2004)
